Measurements reported in PubChem BioAssay AID602196 (INSERM, 2012)

Test: 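Modifiers of cisplatin sensitivity in A549 cells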
Cell system: human A549 lung cancer cells
Knock-down reagent: siRNA pair against human genes
Time to read-out: 48 h transfection before cisplatin; time from cisplatin to read-out not stated
Conditions: cisplatin at a dose killing half of control-siRNA cells; exact dose and duration not given
Detection: 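Cisplatin cell death as a shift from the 50% death seen with control siRNA; siRNAs toxic or growth-blocking alone scored 0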
Reading the numbers: two-siRNA summed score (-2 to +2): higher = both siRNAs protect from cisplatin killing; -2 means both sensitise; mean protection from cisplatin (shift in death) and protection from cisplatin (shift in death), siRNA C and protection from cisplatin (shift in death), siRNA D: higher = protection from cisplatin killing
Hit rule: 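Each siRNA scores 0 if harmful alone by LDH or WST-1, otherwise +1 if it reduces and -1 if it increases cisplatin killing; a gene is active when both siRNAs agree (sum +2 or -2)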
Calls: active = both siRNAs shift cisplatin killing the same way; inactive = no consistent shift, or siRNA harmful alone
Here is an unselected part of about 23,000 reagents. 455 of them (2%) were called active. 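Active includes both protection and sensitisation; some change values fall well beyond the stated -50 to +50 range.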 Not given: the amount of reagent.

The opening 4 records, ahead of the listing:
| gene | two-siRNA summed score (-2 to +2) | mean protection from cisplatin (shift in death) (%) | protection from cisplatin (shift in death), siRNA C (%) | protection from cisplatin (shift in death), siRNA D (%) | Outcome |
| --- | --- | --- | --- | --- | --- |
| NXPH1 | 0 | 3.9 | 8.5 | -0.7 | inactive |
| LOC387994 | 1 | 12.8 | 3.3 | 22.2 | inactive |
| LOC401254 | 0 | 10.5 | 13.4 | 7.5 | inactive |
| LOC440715 | 1 | 14.5 | 23.5 | 5.6 | inactive |

The listing, from the start:
| gene | two-siRNA summed score (-2 to +2) | mean protection from cisplatin (shift in death) (%) | protection from cisplatin (shift in death), siRNA C (%) | protection from cisplatin (shift in death), siRNA D (%) | Outcome |
| --- | --- | --- | --- | --- | --- |
| NXPH1 | 0 | 3.9 | 8.5 | -0.7 | inactive |
| LOC387994 | 1 | 12.8 | 3.3 | 22.2 | inactive |
| LOC401254 | 0 | 10.5 | 13.4 | 7.5 | inactive |
| LOC440715 | 1 | 14.5 | 23.5 | 5.6 | inactive |
| C14orf119 | 0 | -1.2 | -4.9 | 2.6 | inactive |
| SPHK2 | 1 | 21.7 | 27.3 | 16 | inactive |
| F10 | 0 | 17.5 | 27.2 | 7.9 | inactive |
| LOC340221 | 1 | 10.9 | 0.8 | 21.1 | inactive |
| SRP9 | 1 | 9.5 | -2.9 | 21.9 | inactive |
| UBXN1 | 0 | -21.9 | -22.5 | -21.4 | inactive |
| SGF29P1 | 0 | 39 | 9.5 | 68.4 | inactive |
| FGFR3 | 1 | 15.8 | 24.1 | 7.5 | inactive |
| IVD | 0 | 4.6 | 6.4 | 2.9 | inactive |
| PTER | 0 | 2.4 | -0.4 | 5.2 | inactive |
| NUDT11 | 0 | -1 | 7.6 | -9.6 | inactive |
| GLRX2 | 0 | 1.7 | 7.2 | -3.7 | inactive |
| OR5H6 | 0 | 6.5 | 5.3 | 7.6 | inactive |
| CSF2 | 0 | 1 | -3.8 | 5.7 | inactive |
| WNT7A | -1 | -19.3 | -10.5 | -28 | inactive |
| ATXN7L1 | 0 | 12.2 | -0.9 | 25.4 | inactive |
| SURF1 | 0 | -1.2 | 2.7 | -5.1 | inactive |
| CDH13 | 1 | 8.4 | -1.7 | 18.6 | inactive |
| LOC144776 | 0 | 10.8 | 17.7 | 3.9 | inactive |
| LOC440825 | 0 | 20.6 | 35.4 | 5.8 | inactive |
| TP53 | 0 | 3 | -7.6 | 13.6 | inactive |
| ZIC2 | 1 | 5.7 | -6.8 | 18.1 | inactive |
| BTBD9 | 0 | -2.3 | 2.7 | -7.3 | inactive |
| GYPB | 1 | 2.9 | -5.2 | 10.9 | inactive |
| PRELP | 0 | 3.1 | 6.7 | -0.5 | inactive |
| LOC440844 | 1 | 7.9 | 13 | 2.8 | inactive |
| ZBTB3 | 0 | 3.4 | 5.7 | 1.1 | inactive |
| SERTM1 | 1 | 11.4 | 22.8 | 0.1 | inactive |
| SLITRK4 | 0 | 3.3 | 3.1 | 3.6 | inactive |
| RAB2B | 0 | 10 | -2.7 | 22.6 | inactive |
| LOC440315 | 0 | 8.4 | 11.7 | 5.1 | inactive |
| CYP2C19 | 0 | 5.1 | 9.2 | 1 | inactive |
| WBP1 | 0 | 5.2 | -1.2 | 11.6 | inactive |
| ZNF641 | 0 | 7.9 | 6.3 | 9.5 | inactive |
| STXBP2 | 0 | 5.9 | 11.3 | 0.5 | inactive |
| LOC442227 | 1 | 13.2 | 2.1 | 24.3 | inactive |
| APCDD1L | -1 | -12.3 | -21.9 | -2.7 | inactive |
| TSKS | 0 | 4.4 | 11.7 | -2.8 | inactive |
| RUVBL2 | 0 | -3 | -5.6 | -0.3 | inactive |
| TXNRD1 | 0 | 8.7 | 5.6 | 11.9 | inactive |
| FLAD1 | 0 | 4.1 | 8.6 | -0.5 | inactive |
| KCNG4 | 1 | 24.5 | 7.6 | 41.4 | inactive |
| TGIF2LY | 0 | 8.6 | 3.2 | 14.1 | inactive |
| PTPN21 | -1 | -5.2 | -11.5 | 1.1 | inactive |
| CHRFAM7A | -1 | -6.5 | -16.9 | 3.9 | inactive |
| ADAM19 | -1 | -4 | -17.6 | 9.6 | inactive |
| FAM167B | 0 | 6 | -2.1 | 14.1 | inactive |
| LOC440109 | 1 | 8 | 16.8 | -0.8 | inactive |
| LOC388270 | 0 | 8.3 | 7 | 9.5 | inactive |
| PLEKHA1 | 0 | 5.3 | 4.3 | 6.2 | inactive |
| PRR3 | 0 | 5.2 | 13.3 | -2.9 | inactive |
| KBTBD7 | 0 | 6.6 | 4.3 | 8.9 | inactive |
| C16orf82 | 0 | 17.6 | 17.1 | 18.1 | inactive |
